{"source": "the supplement of paper PMC9135407", "system": "primary human hepatic stellate cells (donor 1)", "assay": "percent Bodipy-positive cells; higher = more lipid droplet accumulation", "conditions": "48 h", "key": {"[1]": {"conditions": "library stock concentration: 10 mM"}, "[2]": {"conditions": "library stock concentration: 3.33 mM"}, "[3]": {"conditions": "library stock concentration: 6 mM"}, "[4]": {"conditions": "library stock concentration: 80 uM"}, "[5]": {"conditions": "library stock concentration: 400 uM"}, "[6]": {"conditions": "library stock concentration: 2 mM"}, "[7]": {"conditions": "library stock concentration: 1 mM"}, "[8]": {"conditions": "library stock concentration: 7.5 mM"}}, "note": "Values joined by “and” are separate entries in the source; they are usually repeats but may differ in a detail not shown here. Equal entries are not always repeated. Structures can show the parent of a compound that is named as a salt. ± gives the standard deviation of the averaged measurements. This is one part of the list. Part of the spread comes from offsets between plates or batches.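 Primary human stellate myofibroblasts activated in culture; inactivation shown by regained lipid droplets. Readout: fraction of Hoechst-counted cells exceeding a per-plate Bodipy threshold, duplicate wells, each plate with DMSO negative and nortriptyline positive controls. Hits: control-normalized score beyond the plate's top-tenth-percentile nortriptyline wells, or among its three best wells. Final well concentrations unstated.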"}
{"compound": "NCCS", "note": "[Cysteamine hydrochloride]", "values": [{"measurement": "percent Bodipy-positive cells", "setting": "[1]", "value": "26.4 ± 8.8", "unit": "%"}]}
{"compound": "NCCS", "note": "[Cysteamine HCl]", "values": [{"measurement": "percent Bodipy-positive cells", "setting": "[2]", "value": "7.44 ± 4.8", "unit": "%"}, {"measurement": "percent Bodipy-positive cells", "setting": "[1]", "value": "25.8 ± 11", "unit": "%"}]}
{"compound": "NCCS", "note": "[Mercaptamine hydrochloride]", "values": [{"measurement": "percent Bodipy-positive cells", "setting": "[1]", "value": "52.5 ± 3.5", "unit": "%"}]}
{"compound": "COc1c(C)c2c(c(O)c1C/C=C(\\C)CCC(=O)OCCN1CCOCC1)C(=O)OC2", "note": "[Mycophenolate Mofetil]", "values": [{"measurement": "percent Bodipy-positive cells", "setting": "[2]", "value": "12.1 ± 1.8", "unit": "%"}, {"measurement": "percent Bodipy-positive cells", "setting": "[1]", "value": "7.37 ± 3.1", "unit": "%"}]}
{"compound": "CN1C(C(=O)Nc2ccccn2)=C(O)c2ccccc2S1(=O)=O", "note": "[Piroxicam]", "values": [{"measurement": "percent Bodipy-positive cells", "value": "36.9 ± 1.8", "unit": "%"}, {"measurement": "percent Bodipy-positive cells", "setting": "[2]", "value": "12.5 ± 2.6", "unit": "%"}, {"measurement": "percent Bodipy-positive cells", "setting": "[3]", "value": "7.64% and 14.5%"}, {"measurement": "percent Bodipy-positive cells", "setting": "library stock concentration: 15.1 mM", "value": "13.1 ± 2.3", "unit": "%"}]}
{"compound": "CNCC[C@H](Oc1cccc2ccccc12)c1cccs1.Cl", "note": "[Duloxetine hydrochloride]", "values": [{"measurement": "percent Bodipy-positive cells", "setting": "[3]", "value": "96.5 ± 2", "unit": "%"}]}
{"compound": "CC1(C)S[C@@H]2[C@H](NC(=O)[C@H](N)c3ccccc3)C(=O)N2[C@H]1C(=O)OC1OC(=O)c2ccccc21", "note": "(stereo not given in full) [Talampicillin hydrochloride]", "values": [{"measurement": "percent Bodipy-positive cells", "value": "5 ± 0.95", "unit": "%"}]}
{"compound": "O=C(O)c1ccc(-n2nc(-c3ccccc3O)nc2-c2ccccc2O)cc1", "note": "[Deferasirox]", "values": [{"measurement": "percent Bodipy-positive cells", "setting": "[2]", "value": "10.5 ± 0.75", "unit": "%"}, {"measurement": "percent Bodipy-positive cells", "setting": "[1]", "value": "21 ± 6.5", "unit": "%"}]}
{"compound": "CC(=O)OCOC(c1cc([N+](=O)[O-])ccc1Oc1ccc(Br)cc1)P(=O)(OCOC(C)=O)OCOC(C)=O", "note": "(stereo not given)", "values": [{"measurement": "percent Bodipy-positive cells", "setting": "library stock concentration: 8.1 mM", "value": "88.714 ± 0.025", "unit": "%"}]}
{"compound": "NC(=O)OCC(O)COc1ccc(Cl)cc1", "note": "(stereo not given) [Chlorphensin carbamate]", "values": [{"measurement": "percent Bodipy-positive cells", "value": "31.3 ± 17", "unit": "%"}]}
{"compound": "COc1cc(/C=C(\\C#N)C(=O)c2ccc(O)c(O)c2)cc(I)c1O", "note": "[I-OMe-Tyrphostin AG 538]", "values": [{"measurement": "percent Bodipy-positive cells", "setting": "[1]", "value": "22.2 ± 1.7", "unit": "%"}]}
{"compound": "O=C(O)c1cc2cccc([N+](=O)[O-])c2[nH]1", "values": [{"measurement": "percent Bodipy-positive cells", "setting": "[2]", "value": "26.5 ± 3.8", "unit": "%"}, {"measurement": "percent Bodipy-positive cells", "setting": "[1]", "value": "31.1 ± 3.6", "unit": "%"}]}
{"compound": "COc1ccc(CCc2nc3cc(-c4c(C)noc4C)ccc3n2C[C@H](C)N2CCOCC2)cc1Cl", "values": [{"measurement": "percent Bodipy-positive cells", "setting": "[2]", "value": "45.5 ± 10", "unit": "%"}, {"measurement": "percent Bodipy-positive cells", "setting": "[1]", "value": "64 ± 4.9", "unit": "%"}]}
{"compound": "Cc1cnc(-c2cnc(NCCNc3ccc(C#N)cn3)nc2-c2ccc(Cl)cc2Cl)[nH]1", "values": [{"measurement": "percent Bodipy-positive cells", "setting": "[4]", "value": "22.2 ± 5.6", "unit": "%"}, {"measurement": "percent Bodipy-positive cells", "setting": "[5]", "value": "9.89 ± 2.9", "unit": "%"}, {"measurement": "percent Bodipy-positive cells", "setting": "[6]", "value": "29.1 ± 1.1", "unit": "%"}, {"measurement": "percent Bodipy-positive cells", "setting": "[2]", "value": "24.8 ± 1.8", "unit": "%"}, {"measurement": "percent Bodipy-positive cells", "setting": "[1]", "value": "81.9 ± 2.1", "unit": "%"}]}
{"compound": "Cc1c(NC(C)C)c(=O)n(-c2ccccc2)n1C", "note": "[Ramifenazone]", "values": [{"measurement": "percent Bodipy-positive cells", "setting": "[1]", "value": "42.3 ± 1.1", "unit": "%"}]}
{"compound": "Cc1c(NC(C)C)c(=O)n(-c2ccccc2)n1C", "note": "[Isopyrin hydrochloride]", "values": [{"measurement": "percent Bodipy-positive cells", "value": "7.64 ± 4.7", "unit": "%"}]}
{"compound": "O=c1cc(-c2ccc(O)cc2)oc2cc(O[C@@H]3O[C@H](CO)[C@@H](O)[C@H](O)[C@H]3O)cc(O)c12", "note": "[Cosmosiin]", "values": [{"measurement": "percent Bodipy-positive cells", "setting": "[1]", "value": "50.1 ± 4.5", "unit": "%"}]}
{"compound": "COc1cc(N)c(Cl)cc1C(=O)CCC1CCN(CCNS(C)(=O)=O)CC1", "values": [{"measurement": "percent Bodipy-positive cells", "setting": "[1]", "value": "15.9 ± 3.2", "unit": "%"}]}
{"compound": "CNCc1ccc(-c2[nH]c3cc(F)cc4c3c2CCNC4=O)cc1", "values": [{"measurement": "percent Bodipy-positive cells", "setting": "[2]", "value": "22.8 ± 3", "unit": "%"}]}
{"compound": "CNCc1ccc(-c2[nH]c3cc(F)cc4c3c2CCNC4=O)cc1", "note": "[Rucaparib]", "values": [{"measurement": "percent Bodipy-positive cells", "setting": "[4]", "value": "34.1 ± 1.1", "unit": "%"}, {"measurement": "percent Bodipy-positive cells", "setting": "[5]", "value": "46.3 ± 8", "unit": "%"}, {"measurement": "percent Bodipy-positive cells", "setting": "[6]", "value": "72.9 ± 4.8", "unit": "%"}]}
{"compound": "NCCc1cc[nH]n1", "note": "[Betazole hydrochloride]", "values": [{"measurement": "percent Bodipy-positive cells", "value": "16.9 ± 0.92", "unit": "%"}]}
{"compound": "CCCNC(C)C(=O)Nc1c(C)csc1C(=O)OC", "note": "(stereo not given) [Articaine HCl]", "values": [{"measurement": "percent Bodipy-positive cells", "setting": "[2]", "value": "8.07 ± 3.4", "unit": "%"}, {"measurement": "percent Bodipy-positive cells", "setting": "[1]", "value": "26.9 ± 4.8", "unit": "%"}]}
{"compound": "CCCNC(C)C(=O)Nc1c(C)csc1C(=O)OC", "note": "(stereo not given) [Articaine hydrochloride]", "values": [{"measurement": "percent Bodipy-positive cells", "value": "8.37 ± 2", "unit": "%"}]}
{"compound": "CCNC(=O)c1noc(-c2cc(C(C)C)c(O)cc2O)c1-c1ccc(CN2CCOCC2)cc1", "values": [{"measurement": "percent Bodipy-positive cells", "setting": "[4]", "value": "72.4 ± 9.1", "unit": "%"}, {"measurement": "percent Bodipy-positive cells", "setting": "[5]", "value": "73.8 ± 3.1", "unit": "%"}, {"measurement": "percent Bodipy-positive cells", "setting": "[6]", "value": "74.9 ± 3.9", "unit": "%"}, {"measurement": "percent Bodipy-positive cells", "setting": "[1]", "value": "65.7% and 73.4%"}]}
{"compound": "CCCCCCCCCC(=O)OCC(CO)OC(=O)CCCCCCCCC", "note": "(stereo not given) [1,2-Didecanoyl-glycerol (10:0)]", "values": [{"measurement": "percent Bodipy-positive cells", "setting": "[7]", "value": "7.93 ± 9.2", "unit": "%"}]}
{"compound": "CCCCCCCCCC(=O)OCC(CO)OC(=O)CCCCCCCCC", "note": "(stereo not given) [1,2-Didecanoyl-sn-glycerol]", "values": [{"measurement": "percent Bodipy-positive cells", "setting": "[7]", "value": "8.95 ± 1.3", "unit": "%"}]}
{"compound": "CC(=O)C1=C(O)C=C2Oc3c(C(C)=O)c(O)c(C)c(O)c3C2(C)C1=O", "note": "(single isomer, unassigned; (+)) [(+)-Usniacin]", "values": [{"measurement": "percent Bodipy-positive cells", "setting": "[2]", "value": "7.67 ± 0.59", "unit": "%"}, {"measurement": "percent Bodipy-positive cells", "setting": "[1]", "value": "14.4 ± 2.2", "unit": "%"}]}
{"compound": "C[C@H](NC[C@H](O)CP(=O)(O)Cc1ccccc1)c1ccc(Cl)c(Cl)c1", "values": [{"measurement": "percent Bodipy-positive cells", "setting": "[1]", "value": "6.77 ± 1.4", "unit": "%"}]}
{"compound": "CC(=O)c1cc([N+](=O)[O-])c(Sc2ccc(F)cc2F)s1", "values": [{"measurement": "percent Bodipy-positive cells", "setting": "[2]", "value": "37.4 ± 14", "unit": "%"}, {"measurement": "percent Bodipy-positive cells", "setting": "[1]", "value": "42.8 ± 14", "unit": "%"}]}
{"compound": "CCCCC/C=C/C=C1/C=CC(=O)[C@@H]1CCCCCCC(=O)O", "note": "[15-deoxy-.DELTA.12,14-Prostaglandin A1]", "values": [{"measurement": "percent Bodipy-positive cells", "setting": "[7]", "value": "12.25 ± 0.05", "unit": "%"}]}
{"compound": "O=C1NC(=O)c2cc(Nc3ccc(F)cc3)c(Nc3ccc(F)cc3)cc21", "values": [{"measurement": "percent Bodipy-positive cells", "setting": "[1]", "value": "9.97 ± 2.3", "unit": "%"}]}
{"compound": "Cc1cn([C@H]2C[C@H](N=[N+]=[N-])[C@@H](CO)O2)c(=O)[nH]c1=O", "note": "[Zidovudine [azt]]", "values": [{"measurement": "percent Bodipy-positive cells", "setting": "[8]", "value": "18.9 ± 6.3", "unit": "%"}, {"measurement": "percent Bodipy-positive cells", "setting": "[1]", "value": "14 ± 6.1", "unit": "%"}]}
{"compound": "Cc1cn([C@H]2C[C@H](N=[N+]=[N-])[C@@H](CO)O2)c(=O)[nH]c1=O", "values": [{"measurement": "percent Bodipy-positive cells", "setting": "[1]", "value": "24.4 ± 7.8", "unit": "%"}]}
{"compound": "Cc1cn([C@H]2C[C@H](N=[N+]=[N-])[C@@H](CO)O2)c(=O)[nH]c1=O", "note": "[Zidovudine, AZT]", "values": [{"measurement": "percent Bodipy-positive cells", "value": "17.5 ± 1.6", "unit": "%"}]}
{"compound": "Cc1cn([C@H]2C[C@H](N=[N+]=[N-])[C@@H](CO)O2)c(=O)[nH]c1=O", "note": "[3'-Azido-3'-deoxythymidine]", "values": [{"measurement": "percent Bodipy-positive cells", "setting": "[1]", "value": "45.3 ± 0.52", "unit": "%"}]}
{"compound": "Cc1cn([C@H]2C[C@H](N=[N+]=[N-])[C@@H](CO)O2)c(=O)[nH]c1=O", "note": "[Zidovudine]", "values": [{"measurement": "percent Bodipy-positive cells", "setting": "[2]", "value": "4.66 ± 0.87", "unit": "%"}, {"measurement": "percent Bodipy-positive cells", "setting": "[1]", "value": "12.2 ± 6.4", "unit": "%"}]}
{"compound": "Cc1cn([C@H]2C[C@H](N=[N+]=[N-])[C@@H](CO)O2)c(=O)[nH]c1=O", "note": "[3'-azido-3'-deoxythymidine]", "values": [{"measurement": "percent Bodipy-positive cells", "setting": "[8]", "value": "9.19 ± 2.2", "unit": "%"}]}
{"compound": "COc1ccc([C@@H]2Sc3ccccc3N(CCN(C)C)C(=O)[C@@H]2OC(C)=O)cc1", "note": "[Diltiazem]", "values": [{"measurement": "percent Bodipy-positive cells", "setting": "library stock concentration: 4.8 mM", "value": "24.5 ± 1.2", "unit": "%"}]}
